Values quoted from earlier work in patent US12516080B2, “Remdesivir and remdesivir analogs, solutions, and nanoparticle, liposomal, and microparticle compositions for treating viral infections” (priority 2020, dated 2026).
At least one structure is not confirmed: it was looked up by name or label, or the drawing left a doubt.

Tested on: COVID-19 virus
Conditions: cited from earlier work

## CCC(CC)COC(=O)[C@H](C)N[P@](=O)(OC[C@H]1O[C@@](C#N)(c2ccc3c(N)ncnn23)[C@H](O)[C@@H]1O)Oc1ccccc1 [remdesivir, Remdesivir]
read-out: in vitro EC50 against COVID-19 virus cell lines
  EC50: 770 nM
read-out: in vitro anti-COVID-19 virus activity IC50
  IC50: 770 nM
